B1: CD122 (protein, UniProt P14784 27-551, looked up)
Interleukin-2 receptor …: AVNGTSQFTCFYNSRANISCVWSQDGALQDTSCQVHAWPDRRRWNQTCELLPVSQASWACNLILGAPDSQKLTTVDIVTLRVLCREGVRWRVMAIQDFKPFENLRLMAPISLQVVHVETHRCNISWEISQASHYFERHLEFEARTLSPGHTWEEAPLLTLKQKQEWICLETLTPDTQYEFQVRVKPLQGEFTTWSPWSQPLAFRTKPAALGKDTIPWLGHLLVGLSGAFGFIILVYLLINCRNTGPWLKKVLKCNTPDPSKFFSQLSSEHGGDVQKWLSSPFPSSSFSPGGLAPEISPLEVLERDKVTQLLLQQDKVPEPASLSSNHSLTSCFTNQGYFFFHLPDALEIEACQVYFTYDPYSEEDPDEGVAGAPTGSSPQPLQPLSGEDDAYCTFPSRDDLLLFSPSLLGGPSPPSTAPGGSGAGEERMPPSLQERVPRDWDPQPLGPPTPGVPDLVDFQPPPELVLREAGEEVPDAGPREGVSFPWSRPPGQGEFRALNARLPLNTDAYLSLQELQGQDPTHLV
B2: CD20 (protein, UniProt P11836 1-297, looked up)
B-lymphocyte antigen CD20: MTTPRNSVNGTFPAEPMKGPIAMQSGPKPLFRRMSSLVGPTQSFFMRESKTLGAVQIMNGLFHIALGGLLMIPAGIYAPICVTVWYPLWGGIMYIISGSLLAATEKNSRKCLVKGKMIMNSLSLFAAISGMILSIMDILNIKISHFLKMESLNFIRAHTPYINIYNCEPANPSEKNSPSTQYCYSIQSLFLGILSVMLIFAFFQELVIAGIVENEWKRTCSRPKSNIVLLSAEEKKEQTIEIKEEVVGLTETSSQPKNEEDIEIIPIQEEEEEETETNFPEPPQDQESSPIENDSSP
B3: CD326 (protein, UniProt P16422 24-314, looked up)
Epithelial cell adhesion …: QEECVCENYKLAVNCFVNNNRQCQCTSVGAQNTVICSKLAAKCLVMKAEMNGSKLGRRAKPEGALQNNDGLYDPDCDESGLFKAKQCNGTSMCWCVNTAGVRRTDKDTEITCSERVRTYWIIIELKHKAREKPYDSKSLRTALQKEITTRYQLDPKFITSILYENNVITIDLVQNSSQKTQNDVDIADVAYYFEKDVKGESLFHSKKMDLTVNGEQLDLDPGQTLIYYVDEKAPEFSMQGLKAGVIAVIVVVVIAVVAGIVVLVISRKKRMAKYEKAEIKEMGEMHRELNA
B4: CD85h (protein, UniProt Q8N149 24-483, looked up)
Leukocyte immunoglobulin-like …: GHLPKPTLWAEPGSVIIQGSPVTLRCQGSLQAEEYHLYRENKSASWVRRIQEPGKNGQFPIPSITWEHAGRYHCQYYSHNHSSEYSDPLELVVTGAYSKPTLSALPSPVVTSGGNVTLQCVSQVAFDGFILCKEGEDEHPQRLNSHSHARGWSWAIFSVGPVSPSRRWSYRCYAYDSNSPYVWSLPSDLLELLVPGVSKKPSLSVQPGPMVAPGESLTLQCVSDVGYDRFVLYKEGERDFLQRPGWQPQAGLSQANFTLGPVSPSHGGQYRCYSAHNLSSEWSAPSDPLDILITGQFYDRPSLSVQPVPTVAPGKNVTLLCQSRGQFHTFLLTKEGAGHPPLHLRSEHQAQQNQAEFRMGPVTSAHVGTYRCYSSLSSNPYLLSLPSDPLELVVSEAAETLSPSQNKTDSTTTSLGQHPQDYTVENLIRMGVAGLVLVVLGILLFEAQHSQRSLQDAAGR

test system: D3.5 SOX17-GFP+ PGCs; test: High-throughput cell-surface marker screening (LEGENDScreen), %PE+; format: cell-based, human; conditions: percentage of cells bound to the PE-conjugated antibody (LEGENDScreen)

Row | Molecule | % PE+ in PGCs [%]
1 | B1 | 0.001375
2 | B2 | 0
3 | B3 | 1
4 | B4 | 0

test system: D3.5 SOX17-GFP- non-PGCs; test: as above; format: cell-based, human; conditions: percentage of cells bound to the PE-conjugated antibody (LEGENDScreen)

Row | Molecule | % PE+ in non-PGCs [%]
5 | B1 | 1.814E-05
6 | B2 | 7.085E-05
7 | B3 | 0.9527
8 | B4 | 0.0003134

test system: undifferentiated hPSC (D0); test: as above; format: cell-based, human; conditions: percentage of cells bound to the PE-conjugated antibody (LEGENDScreen)

Row | Molecule | % PE+ in H1 UD [%]
9 | B1 | 0.087
10 | B2 | 0.041
11 | B3 | 99.6
12 | B4 | 0.14

From patent US20230242871A1, “GENERATION OF PRIMORDIAL GERM CELLS AND METHODS OF USING THE SAME” (The Board of Trustees of the Leland Stanfor Junior …, priority 2020, published 2023)
